This is one part of the list. These are further read-outs of the screen, such as a control signal, another cell line or another target. No call is given for them. Compounds called inactive in the main read-out are mostly missing here. The note in brackets gives the kind of curve behind each potency; many fits are weak.

The assay is described as follows: qHTS Assay for Lipid Storage Modulators in Drosophila S3 Cells.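 For cell number change: cells counted by Cell Tracker Red CMTPX staining in the red channel.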 The following applies: BODIPY lipid droplet fluorescence, 18-24 h; for cell number change: measured here: cell count max response, cells fed with added oleic acid. The gist of the method: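 Drosophila S3 cells loaded with oleic acid (400 uM, as added) and compounds at several concentrations; lipid droplets imaged by 488-nm laser-scanning cytometry, 500–530 nm intensity and object ratio to cell channel. Percent activity normalized to 20 uM Triacsin C.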
(In general: qHTS replaces the single test concentration by a dilution series.)

[1] abbreviates: measured here: lipid fluorescence (Fed channel) AC50, cells fed with added oleic acid.
Setting [2] is: measured here: cell number channel AC50, cells fed with added oleic acid.

For the molecule `COc1ccc(CCNC(=O)c2c[nH]c3ccccc3c2=O)cc1OC`, the cell number change was -29.6%. In addition, the AC50 – broadly, the midpoint of the concentration-response curve, whichever way the signal moves – under setting [1] was 18.4 µM [falling, single point].

In the case of `Cc1cnc(NC(=O)C2CCCC2)s1`, the cell number change is -18.8%. Also, the AC50 under setting [2] was 3.66 µM [falling, single point]. Under setting [1], the AC50 was 25.9 µM [falling, single point]. As for `CC(C(N)=O)N1C(=O)C2C3C=CC(C3)C2C1=O` (configuration not stated), under setting [2], the AC50 is 3.26 µM [falling, single point]. In the case of `Oc1ccccc1/C=N/Nc1nccnc1Cl`, the cell number change is -36.4%. Besides, the AC50 under setting [2] was 0.259 µM [falling, full curve]. `O=C(COC(=O)C1=COCCO1)NC(=O)c1ccc(OC(F)F)cc1`: under setting [2], the concentration at half-maximal activity (AC50) is 0.013 µM [falling, full curve, poor fit]. For the molecule `CC1CCN(CCCNC(=O)c2cc3c(=O)n(C)c4ccccc4c3n2C)CC1`, the cell number change amounted to 32.9%. Moreover, under setting [2], the half-maximal activity concentration (AC50) is 20.6 µM [rising, single point]. Besides, the concentration at half-maximal activity (AC50) under setting [1] was 20.6 µM [rising, partial curve]. In the case of `COCCN(Cc1cc2cc3c(cc2nc1Cl)OCO3)C(=O)Nc1ccc(OC)cc1`, the cell number change was determined as 25.6%. In addition, under setting [2], the AC50 is 0.291 µM [rising, full curve, poor fit]. The AC50 under setting [1] is 0.00517 µM [rising, full curve, poor fit].

With `O=C(C1=C[C@@H](c2ccc(Br)cc2)C[C@@H](OCc2ccc(CO)cc2)O1)N1CCN(Cc2ccc3c(c2)OCO3)CC1`, the cell number change is -25.5%. Under setting [1], the AC50 was 2.91 µM [rising, single point]. On to `CCn1nc(CC(=O)Nc2nnc(CC(=O)N3CCOCC3)s2)c2ccccc2c1=O`, for which the cell number change worked out at 43.4%. Moreover, the AC50 under setting [2] was 29.1 µM [rising, single point]. In addition, the AC50 under setting [1] is 9.2 µM [falling, partial curve]. Regarding `CCN(CC(=O)Nc1ccc(NC(C)=O)cc1)C(=O)c1n[nH]c(=O)c2ccccc12`, the cell number change was 22.8%. On to `O=C(Cc1ccccc1F)Nc1nc(-c2ccc(F)cc2)cs1`, for which the cell number change is -2.25%. Take `CC1CCN(CCCCOc2ccccc2Br)CC1`: the cell number change came to 16.1%. In addition, the AC50 under setting [2] was 0.259 µM [rising, full curve]. Besides, the AC50 under setting [1] was 1.16 µM [rising, full curve, poor fit]. Take `COc1ccc(C)cc1S(=O)(=O)N1CCCC(C(=O)NC2CC2)C1` (configuration not stated): the cell number change stood at 7.92%. The AC50 under setting [1] is 3.66 µM [falling, full curve]. Regarding `Cc1ccc(NS(=O)(=O)c2cc(C(=O)NCc3cccnc3)ccc2C)cc1`, the cell number change amounted to 2.89%. For the molecule `COc1ccc(N2C(=O)C3CCCN3C2c2cccc(C)c2)cc1` (configuration not stated), the cell number change came out at 8.55%. In addition, the concentration at half-maximal activity (AC50) under setting [1] was 0.0058 µM [falling, full curve, poor fit].

Take `CC1N(O)C(c2ccc(Cl)cc2Cl)N(O)C1(C)C` (configuration not stated): the cell number change is -6.64%. Also, under setting [2], the AC50 is 4.61 µM [falling, single point]. Moreover, under setting [1], the AC50 is 4.11 µM [rising, full curve, poor fit]. Turning to `CCOc1ccccc1-c1nc(-c2ccncc2)no1`, the cell number change is 2.59%. Under setting [2], the AC50 was 1.84 µM [rising, partial curve]. Regarding `O=C1CCc2cc(S(=O)(=O)NC(Cc3ccccc3)C(=O)NCCC3=CCCCC3)ccc2N1` (configuration not stated), the cell number change is 9.29%. In addition, under setting [1], the AC50 is 7.31 µM [rising, partial curve, poor fit].

Turning to `O=C(Cn1ncc2c([nH]c3ccccc32)c1=O)NCCc1ccc(Cl)cc1`, the cell number change was determined as 33.8%. Also, under setting [2], the concentration at half-maximal activity (AC50) is 0.058 µM [rising, full curve, poor fit]. Moreover, the concentration at half-maximal activity (AC50) under setting [1] is 29.1 µM [rising, single point]. Consider `Cc1c(C=O)c2cc(OCc3ccccc3)ccc2n1C`, for which the cell number change was -27.5%.

In the case of `COCCn1c(C)cc(C(=O)CSc2ccc3ccccc3n2)c1C`, the cell number change was determined as 61.2%. Under setting [2], the AC50 was 29.1 µM [rising, single point]. Turning to `CCOc1ccc(NC(=O)C(CC)n2nc(C)c3c(C)n(-c4ccccc4)nc3c2=O)cc1` (configuration not stated), the cell number change stood at 23.6%.

For `O=C(C1=C(O)C(=O)N(CCN2CCOCC2)C1c1ccncc1)c1ccco1` (configuration not stated), the cell number change was found to be 8.59%. In addition, under setting [1], the AC50 is 29.1 µM [falling, single point]. For `CC(=O)N1CCN(CCN(CC2C(C)C=C(C)CC2C)C(C)=O)CC1` (configuration not stated), the cell number change is -10.1%. Besides, the concentration at half-maximal activity (AC50) under setting [2] was 0.146 µM [falling, full curve, poor fit]. Further, the AC50 under setting [1] is 5.8 µM [falling, full curve, poor fit]. Turning to `CCn1c(SCc2ccc(C)cc2)nnc1-c1cnccn1`, the cell number change worked out at 0.458%. For the same molecule, the concentration at half-maximal activity (AC50) under setting [1] is 11.6 µM [rising, partial curve].

In the case of `CC(=O)c1cc(F)ccc1OCC(=O)N1CCCc2ccccc21`, the cell number change was found to be 18.1%. Besides, the AC50 under setting [1] was 29.1 µM [falling, single point]. As for `COCCNC(=O)COc1ccccc1C`, the cell number change turned out to be 18.2%. In addition, the AC50 under setting [1] was 6.51 µM [rising, single point]. Take `CCOc1ccc(NC(=O)CSc2nnnn2C2CCCC2)cc1`: the cell number change was 6.67%. Moreover, under setting [1], the half-maximal activity concentration (AC50) was 3.66 µM [rising, full curve].

`O=C1/C(=C\c2ccc(O)c(O)c2)N=C2CCCCCN12`: the cell number change was -30.9%. On to `Cc1cccc(NC(=O)c2cc([N+](=O)[O-])ccc2Cl)c1O`, for which the cell number change stood at 98.2%.

On to `CCCCOC(=O)NC(NCC(O)c1ccccc1)(C(F)(F)F)C(F)(F)F` (configuration not stated), for which the concentration at half-maximal activity (AC50) runs as follows: under setting [2], 0.731 µM [falling, single point]; under setting [1], 8.2 µM [falling, partial curve, poor fit]. With `COc1ccc(C(CNC(=O)c2cccc(S(=O)(=O)N(C)c3ccccc3)c2)N2CCCC2)cc1` (configuration not stated), the cell number change is -14%. Besides, the half-maximal activity concentration (AC50) under setting [1] is 0.0259 µM [falling, full curve, poor fit]. `CC(/C=C/c1ccc2c(c1)OCO2)=N/NC(=O)c1ccc(C)nc1`: the cell number change was 21.9%. Moreover, under setting [1], the concentration at half-maximal activity (AC50) is 18.4 µM [rising, single point]. For `CN(C)c1ccc(NS(=O)(=O)c2ccc(Cl)cc2)cc1`, the cell number change is -26.6%. Under setting [1], the AC50 was 29.1 µM [falling, single point]. As for `COc1cccc(Nc2nc(-c3sc(NC(=O)c4ccccc4)nc3C)cs2)c1`, the cell number change turned out to be 82.4%.

`O=C1c2ccccc2NC2(CCCC2)N1O`: the cell number change was -23.2%. The AC50 under setting [2] is 0.00517 µM [falling, full curve]. Also, the concentration at half-maximal activity (AC50) under setting [1] is 0.651 µM [falling, full curve].

For `O=C(NCCN1CCN(C(=O)c2cccs2)CC1)c1cccs1`, the cell number change is 50.2%. In addition, the concentration at half-maximal activity (AC50) under setting [2] is 29.1 µM [rising, single point]. In addition, under setting [1], the concentration at half-maximal activity (AC50) was 29.1 µM [rising, single point]. Take `NS(=O)(=O)c1ccc(NC(=O)c2cc(=O)c3ccccc3o2)cc1`: the cell number change turned out to be 13.7%.

As to `COC(=O)C1=C(C)N(C)C(=O)NC1c1cc(Cl)c(O)c(OC)c1` (configuration not stated), the cell number change amounted to 5.52%. Under setting [1], the AC50 is 0.146 µM [falling, full curve, poor fit].

Values taken from PubChem BioAssay AID2685 (National Center for Advancing Translational Sciences (NCATS), 2010).
